Assay results reported in patent US20150086553A1 (SAMSUNG ELECTRONICS, published 2015).
No constants are given. Whether binding was seen depends on the method and setting. Some binding calls cover weakened binding; strength is not graded here.

Experiments:
[1] = molecular target: T1, Annexin A1 on cancer cells (SNU1, MDA-MB-231) (UniProt P04083); assay: cell-based ELISA on SNU1 and MDA-MB-231 cells, 250/125/25 ng scFv per well, anti-HA-HRP
T1 sequence (looked up): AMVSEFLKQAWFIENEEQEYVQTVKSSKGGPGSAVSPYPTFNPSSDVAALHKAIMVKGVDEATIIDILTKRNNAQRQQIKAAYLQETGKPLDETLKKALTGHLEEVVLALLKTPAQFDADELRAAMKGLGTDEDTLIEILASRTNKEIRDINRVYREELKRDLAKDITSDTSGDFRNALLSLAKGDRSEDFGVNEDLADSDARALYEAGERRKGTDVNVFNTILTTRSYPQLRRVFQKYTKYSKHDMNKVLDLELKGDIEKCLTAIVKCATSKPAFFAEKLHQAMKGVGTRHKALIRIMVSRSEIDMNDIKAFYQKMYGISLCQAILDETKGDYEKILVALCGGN

[2] = molecular target: T2, full-length Annexin A1 protein (346 amino acids; Accession No. NP-000691.1) (human) (UniProt P04083); assay: scFv selected by ELISA on plate-coated full-length Annexin A1
T2 sequence: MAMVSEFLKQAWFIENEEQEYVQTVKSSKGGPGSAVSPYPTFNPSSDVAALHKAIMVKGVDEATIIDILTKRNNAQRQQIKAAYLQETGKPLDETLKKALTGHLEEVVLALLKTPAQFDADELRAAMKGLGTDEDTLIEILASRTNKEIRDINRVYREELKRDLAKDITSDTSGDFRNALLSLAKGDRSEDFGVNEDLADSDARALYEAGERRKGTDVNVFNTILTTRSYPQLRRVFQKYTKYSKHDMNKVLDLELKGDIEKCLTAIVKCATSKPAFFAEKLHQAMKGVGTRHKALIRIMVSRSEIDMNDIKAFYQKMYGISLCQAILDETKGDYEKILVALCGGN

[3] = molecular target: T2, full-length Annexin A1 protein (346 amino acids; Accession No. NP-000691.1) (human); assay: scFv selected by ELISA on plate-coated full-length Annexin A1, anti-HA-HRP detection

binding [1]: binds | binding [2]: binds | binding [3]: binds
B1: scFv F2 (scFv)
scFv: EVQLLESGGGLVQPGGSLRLSCAASGFTFSNYSMSWVRQAPGKGLEWVSGISSDGGNKYYADSVKGRFTISRDNSKNTLYLQMNSLRAEDTAVYYCARRAIPFDYWGQGTLVTVSSGGGGSGGGGSGGGGSQSVLTHPPSASGTPGQRVTISCTGSSSNIGSNAVSWYQQLPGTAPKLLIYYNSQRPSGVPDRFSGSKSGTSASLAISGLRSEDEADYYCGAWDDSLNAYVFGGGTKLTVLG
